Measurements published in publication PMC5324115.
These are yes or no findings as the source states them, for the method shown. In cells and extracts the contact can be indirect. Some results given as binding are weak or reduced against the parent protein; the word gives no strength. Sequences can lack the tags named with a protein. Each block holds one binder with its values, some of them ahead of it.

How the values were obtained:
[1] = molecular target: T1, HisFtsW (E. coli FtsW with N-terminal His-tag) (E. coli) (UniProt P0ABG4); assay: pull-down; co-expression in E. coli; membranes solubilised with 40 mM LMNG; Ni-affinity column in 50 mM Hepes pH 7.5, 200 mM NaCl, 10% glycerol, 0.2 mM LMNG; imidazole elution; fractions labelled with fluorescent ampicillin, SDS-PAGE
T1 sequence: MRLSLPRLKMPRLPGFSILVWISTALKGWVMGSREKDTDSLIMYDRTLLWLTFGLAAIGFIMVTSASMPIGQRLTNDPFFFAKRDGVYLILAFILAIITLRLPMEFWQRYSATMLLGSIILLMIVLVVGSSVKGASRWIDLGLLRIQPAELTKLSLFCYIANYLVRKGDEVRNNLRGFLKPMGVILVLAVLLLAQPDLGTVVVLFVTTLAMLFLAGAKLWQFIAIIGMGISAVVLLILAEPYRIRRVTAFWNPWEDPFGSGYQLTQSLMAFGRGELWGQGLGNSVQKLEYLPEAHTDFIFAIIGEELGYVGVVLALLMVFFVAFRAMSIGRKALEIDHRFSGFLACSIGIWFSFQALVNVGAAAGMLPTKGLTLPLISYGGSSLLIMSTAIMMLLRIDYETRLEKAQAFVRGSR

[2] = molecular target: T2, FtsW (E. coli, untagged) (E. coli) (UniProt P0ABG4); assay: as above
T2 sequence: T1 sequence

[3] = molecular target: T3, HisPBP3 (E. coli PBP3, FtsI, with N-terminal His-tag) (E. coli) (UniProt P0AD68); assay: as above
T3 sequence: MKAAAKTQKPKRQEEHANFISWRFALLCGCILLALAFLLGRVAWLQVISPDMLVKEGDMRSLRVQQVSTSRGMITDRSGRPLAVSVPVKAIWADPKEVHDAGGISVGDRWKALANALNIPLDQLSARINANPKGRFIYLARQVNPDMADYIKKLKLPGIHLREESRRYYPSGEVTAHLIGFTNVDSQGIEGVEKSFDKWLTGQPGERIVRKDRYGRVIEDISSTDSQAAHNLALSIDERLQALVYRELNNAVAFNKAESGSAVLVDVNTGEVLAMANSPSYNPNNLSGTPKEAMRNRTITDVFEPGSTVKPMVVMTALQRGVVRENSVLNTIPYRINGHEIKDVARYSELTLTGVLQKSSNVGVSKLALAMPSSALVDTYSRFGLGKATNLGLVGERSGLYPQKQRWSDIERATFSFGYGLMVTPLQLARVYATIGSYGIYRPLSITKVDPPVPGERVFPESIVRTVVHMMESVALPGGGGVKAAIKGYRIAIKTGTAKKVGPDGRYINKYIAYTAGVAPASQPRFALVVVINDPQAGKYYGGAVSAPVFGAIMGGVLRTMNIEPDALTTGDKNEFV

[4] = molecular target: T3, HisPBP3 (E. coli PBP3, FtsI, with N-terminal His-tag) (E. coli); assay: pull-down; co-expression in E. coli C43 (DE3); membranes solubilised with 40 mM DDM; Ni-affinity (HisTrap) column in 50 mM Hepes pH 7.5, 300 mM NaCl, 10% glycerol, 50 mM imidazole, 1 mM DDM; imidazole elution; fractions labelled with fluorescent ampicillin, SDS-PAGE (anti-HA blot of the flow-through for FtsWHA)

binding [1]: binds
B1: native E. coli PBP3 (enzyme, UniProt P0AD68 1-577)
chain: T3 sequence

binding [2]: binds
binding [1]: binds
B2: PBP1b (E. coli, untagged) (enzyme, UniProt P02919 1-844)
chain: MAGNDREPIGRKGKPTRPVKQKVSRRRYEDDDDYDDYDDYEDEEPMPRKGKGKGKGRKPRGKRGWLWLLLKLAIVFAVLIAIYGVYLDQKIRSRIDGKVWQLPAAVYGRMVNLEPDMTISKNEMVKLLEATQYRQVSKMTRPGEFTVQANSIEMIRRPFDFPDSKEGQVRARLTFDGDHLATIVNMENNRQFGFFRLDPRLITMISSPNGEQRLFVPRSGFPDLLVDTLLATEDRHFYEHDGISLYSIGRAVLANLTAGRTVQGASTLTQQLVKNLFLSSERSYWRKANEAYMALIMDARYSKDRILELYMNEVYLGQSGDNEIRGFPLASLYYFGRPVEELSLDQQALLVGMVKGASIYNPWRNPKLALERRNLVLRLLQQQQIIDQELYDMLSARPLGVQPRGGVISPQPAFMQLVRQELQAKLGDKVKDLSGVKIFTTFDSVAQDAAEKAAVEGIPALKKQRKLSDLETAIVVVDRFSGEVRAMVGGSEPQFAGYNRAMQARRSIGSLAKPATYLTALSQPKIYRLNTWIADAPIALRQPNGQVWSPQNDDRRYSESGRVMLVDALTRSMNVPTVNLGMALGLPAVTETWIKLGVPKDQLHPVPAMLLGALNLTPIEVAQAFQTIASGGNRAPLSALRSVIAEDGKVLYQSFPQAERAVPAQAAYLTLWTMQQVVQRGTGRQLGAKYPNLHLAGKTGTTNNNVDTWFAGIDGSTVTITWVGRDNNQPTKLYGASGAMSIYQRYLANQTPTPLNLVPPEDIADMGVDYDGNFVCSGGMRILPVWTSDPQSLCQQSEMQQQPSGNPFDQSSQPQQQPQQQPAQQEQKDSDGVAGWIKDMFGSN

binding [3]: binds
binding [4]: binds
B3: FtsW (E. coli, untagged) (protein, UniProt P0ABG4 1-414)
chain: T1 sequence
